The values below come from PMC12666673.

Sequences of proteins named here, by UniProt entry; tags and fusion partners are left off.
UniProt P07355: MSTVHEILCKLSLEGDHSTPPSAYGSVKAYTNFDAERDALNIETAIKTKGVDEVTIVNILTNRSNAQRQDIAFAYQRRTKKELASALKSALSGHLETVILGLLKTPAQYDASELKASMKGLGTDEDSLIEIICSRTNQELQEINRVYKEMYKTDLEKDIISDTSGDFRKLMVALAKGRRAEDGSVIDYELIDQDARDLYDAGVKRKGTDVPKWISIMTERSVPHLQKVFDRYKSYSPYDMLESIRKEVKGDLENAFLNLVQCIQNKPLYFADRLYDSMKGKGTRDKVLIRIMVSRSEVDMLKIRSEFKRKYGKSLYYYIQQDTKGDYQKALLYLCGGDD

No constants are given. Whether binding was seen depends on the method and setting. Binding seen in cells or lysates may run through a third protein. A yes stands for co-enrichment or nearness to the bait. Other partners may have been found.

The target of this assay is T1, V-set and immunoglobulin domain containing 2 (VSIG2) (human (endogenous in AGS)) (UniProt Q96IQ7).
T1 sequence: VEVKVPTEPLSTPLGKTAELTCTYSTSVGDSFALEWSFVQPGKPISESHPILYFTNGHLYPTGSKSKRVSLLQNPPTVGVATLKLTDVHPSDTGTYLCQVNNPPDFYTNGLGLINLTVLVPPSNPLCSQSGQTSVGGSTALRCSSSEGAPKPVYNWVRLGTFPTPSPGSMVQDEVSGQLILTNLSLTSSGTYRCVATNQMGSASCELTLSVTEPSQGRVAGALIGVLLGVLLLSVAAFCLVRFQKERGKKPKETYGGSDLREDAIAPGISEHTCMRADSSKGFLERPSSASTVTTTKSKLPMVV
Put plainly: affinity purification with mass spectrometry; AGS cell protein precipitated with the VSIG2 antibody, then LC-MS/MS.

Regarding ANXA2 (from UniProt P07355 1-339), the binding result is “binds”.
